Among all 31,000 sequences or so, about 1,400 (4.5%) were called active.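 Rule for the calls: active = median seed-adjusted z-score above 1 or below -1; inactive = the rest.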 Some of the results follow.

A short description of this test: Novel Modifiers of Survival Motor Neuron (SMN) Protein: Gene Identification via Genome-wide siRNA Screen.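 Note: luminescence tracks full-length SMN protein made from the SMN2 reporter.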 The following applies: HEK293T SMN2-luciferase reporter, siRNA knockdown, 72 h; actives lie on both sides. Summed up: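 Steps: spot 1 pmol siRNA, add Lipofectamine RNAiMax in serum-free DMEM, seed HEK293T SMN2–luciferase reporter cells; incubate 72 h at 37 °C; add ONE-Glo; normalize luminescence to control siRNA, log10, MAD. Candidates: |MAD| > 1.0.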
On the technique in general: In a reporter assay the amount or activity of a reporter protein is the signal.
With GGAACCAUCGCAAAAUUAUTT against ZNF625, the median seed-adjusted z-score is inactive: -0.0711.

GCACGACGGUUUUCCUAGATT against LRRN1: the median seed-adjusted z-score was inactive: -0.407.

Turning to GCAUAUACCCGCAUAGUUUTT against SPAM1, the median seed-adjusted z-score was inactive: 0.518.

For GCUUGUGGUUUCACCCUGATT against NME1, the median seed-adjusted z-score was inactive: 0.188.

For GGGUCUUACGAAUGCGGAATT against ZNF618, the median seed-adjusted z-score was inactive: 0.311.

For CUCUGGUGGUGGACGUUAATT against TYMP, the median seed-adjusted z-score is inactive: -0.249.

As for CACUAGUUCUAUGACCAUUTT against IMPG1, the median seed-adjusted z-score is inactive: -0.252.

Regarding GCAUGUCGGGUUAUUAGAATT against PCCA, the median seed-adjusted z-score is inactive: 0.

With AGACAUGCUUCGGAAGGAUTT against TGIF2, the median seed-adjusted z-score is inactive: -0.304.

GGUGCUACGUGGUGAAGGATT against HGFAC: the median seed-adjusted z-score was inactive: 0.021.

Turning to ACAUCCUUAUCGACCUCAATT against PIM1, the median seed-adjusted z-score is inactive: -0.409.

UCUGGGAUGUCAAUCCUAATT against ST3GAL4: the median seed-adjusted z-score was inactive: 0.245.

For CUGUUGAGCUAGCACAUUATT against FOLH1, the median seed-adjusted z-score is inactive: 0.148.

As to CCACCUCUGGAACAAGAUUTT against CAPN3, the median seed-adjusted z-score is inactive: 0.0426.

Turning to GGAUAGAAUAUGUAACGGUTT against SUPT6H, the median seed-adjusted z-score was active: -2.54.

As for CGAGAAUACUGGAACAAUATT against CAPN2, the median seed-adjusted z-score is inactive: -0.0828.

CCUCCAUGAUGACUAGCGATT against TMEM8: the median seed-adjusted z-score was inactive: -0.551.

As to GCAAGGAUGUCUAAGCUAATT against SLC2A4RG, the median seed-adjusted z-score was inactive: -0.0232.

As to CUGUACUUAUAGUUGCUAATT against ARL4A, the median seed-adjusted z-score was inactive: -0.572.

As for GGAUCGCAGUCGAUCAAGATT against RBM25, the median seed-adjusted z-score is inactive: -0.265.

With GCAAGGUGCGUGAGGAGUATT against TUBB3, the median seed-adjusted z-score is inactive: 0.208.

In the case of AUAUCACCGAUGAUACAUATT against CCNA1, the median seed-adjusted z-score was inactive: -0.203.

AGCUGCCUGUAGUUAGGAATT against POMC: the median seed-adjusted z-score was inactive: 0.374.

In the case of GGAGAUCACAGACCUGAGATT against KRT15, the median seed-adjusted z-score was inactive: 0.756.

On to GGAACGGACCUACUCAACATT against EPHA7, for which the median seed-adjusted z-score was inactive: -0.172.

As for CGGUCGACAGGAUUCCAAATT against DDEFL1, the median seed-adjusted z-score is inactive: 0.293.

On to GGAUUAAGAACAGUCGAAATT against MPDZ, for which the median seed-adjusted z-score was inactive: -0.398.

With GAAGUAAACCUUUCAUUUATT against AMY2A, the median seed-adjusted z-score is inactive: -0.266.

GAGCCUGACUGUUCACACATT against GPS2: the median seed-adjusted z-score was inactive: 0.

As for GGUCGAAUCCAGUAGAAAATT against TERF2, the median seed-adjusted z-score is inactive: 0.246.

Turning to CCCUGUCCUUAAUAACUUATT against ABL2, the median seed-adjusted z-score was inactive: 0.293.

Consider CUACGGCAACAGACAAGAATT against MRC1, for which the median seed-adjusted z-score was inactive: 0.179.

GGACUGAAGUGGACUGGAUTT against SYTL2: the median seed-adjusted z-score is inactive: 0.211.

As to CAAAGGAGACGGAAAAGGATT against DRD3, the median seed-adjusted z-score was inactive: 0.0447.

With CCUAGUAUCUGUAAGCGAATT against PLA2R1, the median seed-adjusted z-score was inactive: -0.0304.

As for GCCUUACUCUGAUCUGGUATT against IL1RAP, the median seed-adjusted z-score is inactive: -0.23.

Consider GGAGGUCUAUAUUAUAAGATT against CFHR4, for which the median seed-adjusted z-score is inactive: -0.0972.

Take GGAAUACGCUGAAUCCAUATT against RAB31: the median seed-adjusted z-score is inactive: 0.41.

For the sequence GUGAAGAAGCUAAUGAAGATT against PLCXD2, the median seed-adjusted z-score is inactive: -0.0211.

As for UCUCCUAUGUGAUGCUGAATT against DPM2, the median seed-adjusted z-score is inactive: -0.419.

UAAUGUAUCUGUGAUGUUATT against VAPB: the median seed-adjusted z-score is inactive: 0.254.

Turning to GUGCUGCAAAGGAUAUAAATT against CCBE1, the median seed-adjusted z-score was inactive: 0.964.

Turning to GGCACGGUCUGGUUCAUUUTT against ZNF580, the median seed-adjusted z-score is inactive: 0.437.

In the case of GGAUGCGUUUUCUGACAAATT against GPR149, the median seed-adjusted z-score is inactive: -0.186.

Regarding AAGUAGAACCUGCAAACAATT against DDX19B, the median seed-adjusted z-score is inactive: -0.298.

As for UGAUGAAGUUUCACAAGUATT against RNMTL1, the median seed-adjusted z-score was inactive: 0.174.

As for GGAACAAUUCGUAACUAGATT against NECAB1, the median seed-adjusted z-score is inactive: 0.0268.

Consider GAAGAUGUAUGGAAUUCUUTT against DARC, for which the median seed-adjusted z-score was inactive: 0.0814.

As to CACUAUCCAUAUACGUAUUTT against AGTPBP1, the median seed-adjusted z-score was inactive: -0.201.

For CCCAGACAAAUUACCUAUATT against CAD, the median seed-adjusted z-score is active: 2.37.

Regarding GAAUUUACAUAUCAGACUATT against RBKS, the median seed-adjusted z-score is inactive: 0.229.

For GCUGAUCCGCUUUUCUACATT against GBGT1, the median seed-adjusted z-score was inactive: 0.48.

Regarding AGAUUUUCCUUGAUGCAUUTT against CA3, the median seed-adjusted z-score was inactive: -0.276.

Turning to CCCUUUCAGUGUAGACAAUTT against ZNF490, the median seed-adjusted z-score is inactive: 0.00954.

Regarding GCUGAUAUGGGAUCACGCATT against PAQR6, the median seed-adjusted z-score is inactive: 0.632.

In the case of GACAGAAUAUGGUUCACGATT against ROR2, the median seed-adjusted z-score was inactive: 0.

For the sequence CGAUGGGUUGUAUAUACUATT against NDUFA12, the median seed-adjusted z-score was inactive: -0.377.

For the sequence AGCAGAAAAUGGUCAACUATT against TWF2, the median seed-adjusted z-score was inactive: 0.303.

For the sequence GGUAUUCAGAAACUACAAATT against GNPAT, the median seed-adjusted z-score was inactive: 0.111.

Take GAGACGGACUGGUUUGAUATT against BSN: the median seed-adjusted z-score was inactive: 0.116.

For GGCUCUACCAAGUAGAAUATT against PSMA6, the median seed-adjusted z-score was inactive: -0.768.

Take UCUUUGUGGUGGACAGUAATT against ARF5: the median seed-adjusted z-score is inactive: -0.507.

For CAGCAGAAACGGAAUGGAATT against MBNL2, the median seed-adjusted z-score is inactive: -0.675.

Regarding CGUCGAAAGCGGAUUCCAATT against DIAPH2, the median seed-adjusted z-score was inactive: -0.0149.

In the case of GGACUUCCAUCGAUUCUAUTT against CAMK2A, the median seed-adjusted z-score is inactive: 0.396.

For the sequence CACGAUAUCAUGUUACUAATT against CMA1, the median seed-adjusted z-score was inactive: -0.0475.

With GAAGGACGAUUACUAGCAATT against GABRQ, the median seed-adjusted z-score was inactive: -0.54.

With GGAUCUAAUUAGUCGAAGATT against ARHGAP21, the median seed-adjusted z-score was inactive: 0.229.

Regarding AGAUCGUCCCUGUUGGUGATT against STK35, the median seed-adjusted z-score is inactive: 0.519.

In the case of CGAUGUUUGAUAUUGAAUATT against SIRT1, the median seed-adjusted z-score was inactive: 0.

Take GCAAAGAUAAACUACCAAATT against ADI1: the median seed-adjusted z-score is inactive: 0.0593.

Regarding CUCUAAAGAUGGUGGAUGATT against HPSE, the median seed-adjusted z-score was inactive: 0.153.

Regarding CUAACCCUAUUGUUCGCAATT against PZP, the median seed-adjusted z-score was inactive: -0.878.

Take CAAUCAGGAGGUUAAGGAATT against RCAN2: the median seed-adjusted z-score was inactive: -0.185.

As to AUCUACUCCUUUACUCUUATT against NAT1, the median seed-adjusted z-score was inactive: -0.0665.

GAUUUCUAAUUAACACAAUTT against POLR1D: the median seed-adjusted z-score was inactive: -0.0409.

For CGUGAGUACAUGAACAAGATT against UBE4A, the median seed-adjusted z-score was inactive: -0.285.

For the sequence GCCGUUGCAUCAUGGAUUATT against TNPO1, the median seed-adjusted z-score is inactive: 0.688.

With UGCUGGUCACUUUCGAAGATT against INTS6, the median seed-adjusted z-score was inactive: -0.0163.

Consider GCUCGUCUACUUCACGAAATT against CUL9, for which the median seed-adjusted z-score is inactive: 0.399.

For the sequence GGUUCUGGAUUCAAGCAUATT against MTERF, the median seed-adjusted z-score is inactive: 0.432.

With GGCUUGGAGAUUUCCGGAATT against AP2B1, the median seed-adjusted z-score is inactive: -0.214.

Consider CAAAGUCCAUGGAGUCUUUTT against RASA4, for which the median seed-adjusted z-score is active: -1.11.

For the sequence GCAAUUACAGGCUAGUGAATT against AKAP9, the median seed-adjusted z-score was active: -1.22.

In the case of GGGUUUAUAUCGAACGCAATT against RNF144B, the median seed-adjusted z-score is inactive: 0.642.

GAAUAUGGGUCAGUACAUATT against SLC26A7: the median seed-adjusted z-score was inactive: 0.561.

Take GGACUGUGCGGAGCAUGUATT against NOTCH1: the median seed-adjusted z-score was inactive: 0.116.

For the sequence AGGAUGAAUUGGCUCGGGATT against RAB40A, the median seed-adjusted z-score is inactive: 0.

For GCAUGGUCCGGAAGGCAAATT against STK19, the median seed-adjusted z-score is inactive: -0.188.

Take CGGACGAAGAGAUUGGGAATT against DRAP1: the median seed-adjusted z-score is active: 1.08.

For GCGUUUGACUGGAUUCGCATT against MMP21, the median seed-adjusted z-score was inactive: -0.185.

CGAAAGCUGUUGUUACUCATT against SRR: the median seed-adjusted z-score is inactive: -0.256.

For the sequence CAAUAUAUCGGGUGCAAGATT against PTH2R, the median seed-adjusted z-score is inactive: -0.492.

With GAGCGUGCAAUAGAAGAAATT against PPRC1, the median seed-adjusted z-score is inactive: 0.

As for CAGGUAGUGUAAGCCCUCATT against MZF1, the median seed-adjusted z-score is inactive: 0.215.

With GCCUUUGCAGGUAUCAGAATT against LYPLA1, the median seed-adjusted z-score was inactive: 0.

With UGAGGACAAGGAUUUGGAATT against EIF2S2, the median seed-adjusted z-score was inactive: 0.576.

Regarding ACAUGUAUGCUGUAAAUCUTT against CSAD, the median seed-adjusted z-score is inactive: -0.0681.

For the sequence GAGUCGUUGUCCAUCUUAATT against SR140, the median seed-adjusted z-score was active: 1.16.

For GAAACCAUACAAACCUAAATT against ZNF273, the median seed-adjusted z-score is inactive: 0.0489.

With AAACCAUCAUGCUGAGGUGTT against FCGR2A, the median seed-adjusted z-score is inactive: -0.19.

Consider CACUGUGACUGCAUUGAAATT against TGIF1, for which the median seed-adjusted z-score was inactive: 0.303.

As for GGCUUUGUCAGUUCCCAGATT against SPRR2B, the median seed-adjusted z-score is inactive: 0.388.

In the case of GCCUGAAGUUUUUAAGGAATT against SPOP, the median seed-adjusted z-score was inactive: 0.000304.

With CAAUGUGGAGUGUCAGAAATT against SMYD2, the median seed-adjusted z-score was inactive: -0.393.

On to CAAUAGACAUUUUAGUCUATT against POT1, for which the median seed-adjusted z-score is inactive: 0.459.

Take GGUGUGCCGAUGCAACAGATT against LHX4: the median seed-adjusted z-score is inactive: 0.0795.

For the sequence GUCUUUAAUCGGAAGCGAATT against ZNF813, the median seed-adjusted z-score is inactive: 0.127.

The values are drawn from PubChem BioAssay AID1347426 (Functional Genomics Laboratory (NCATS/FGL), 2020).
